Results from the supplement of paper PMC8728848.
Some of the results follow.

Tests used:
Experiment in all cases: glycan array binding signal (z-score within array); higher = stronger binding
Conditions in all cases: glycan notation: IUPAC condensed, linker removed
Fuc(a1-2)[Gal(a1-3)]Gal = molecular target: Fuc(a1-2)[Gal(a1-3)]Gal
Method in brief: (§1)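 Negative Z-scores can be read as non-binding. The Z-score is calculated within each array and then averaged across arrays of one protein sequence at different concentrations or buffers and across linkers. Arrays, 3228 in all, were curated from the Consortium for Functional Glycomics database and kept only where the protein sequence was available.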

[1] = molecular target: Fuc(a1-2)[Gal(a1-3)]Gal(b1-3)GlcNAc
Method in brief: as §1

[2] = molecular target: Fuc(a1-2)[Gal(a1-3)]Gal(b1-3)GlcNAc(b1-2)Man(a1-3)[Fuc(a1-2)[Gal(a1-3)]Gal(b1-3)GlcNAc(b1-2)Man(a1-6)]Man(b1-4)GlcNAc(b1-4)GlcNAc
Method in brief: as §1

[3] = molecular target: Fuc(a1-2)[Gal(a1-3)]Gal(b1-4)Glc
Method in brief: as §1

[4] = molecular target: Fuc(a1-2)[Gal(a1-3)]Gal(b1-4)GlcNAc
Method in brief: as §1

[5] = molecular target: Fuc(a1-2)[Gal(a1-3)]Gal(b1-4)GlcNAc(b1-2)Man(a1-3)[Fuc(a1-2)[Gal(a1-3)]Gal(b1-4)GlcNAc(b1-2)Man(a1-6)]Man(b1-4)GlcNAc(b1-4)GlcNAc
Method in brief: as §1

[6] = molecular target: Fuc(a1-2)[Gal(a1-3)]Gal(b1-4)[Fuc(a1-3)]GlcNAc
Method in brief: as §1

[7] = molecular target: Fuc(a1-2)[Gal(a1-4)]Gal(b1-4)GlcNAc
Method in brief: as §1

[8] = molecular target: Fuc(a1-2)[GalNAc(a1-3)]Gal
Method in brief: as §1

[9] = molecular target: Fuc(a1-2)[GalNAc(a1-3)]Gal(b1-3)GalNAc(a1-3)[Fuc(a1-2)]Gal(b1-4)GlcNAc
Method in brief: as §1

[10] = molecular target: Fuc(a1-2)[GalNAc(a1-3)]Gal(b1-3)GlcNAc
Method in brief: as §1

[11] = molecular target: Fuc(a1-2)[GalNAc(a1-3)]Gal(b1-3)GlcNAc(b1-2)Man(a1-3)[Fuc(a1-2)[GalNAc(a1-3)]Gal(b1-3)GlcNAc(b1-2)Man(a1-6)]Man(b1-4)GlcNAc(b1-4)GlcNAc
Method in brief: as §1

[12] = molecular target: Fuc(a1-2)[GalNAc(a1-3)]Gal(b1-4)Glc
Method in brief: as §1

[13] = molecular target: Fuc(a1-2)[GalNAc(a1-3)]Gal(b1-4)GlcNAc
Method in brief: as §1

[14] = molecular target: Fuc(a1-2)[GalNAc(a1-3)]Gal(b1-4)GlcNAc(b1-2)Man(a1-3)[Fuc(a1-2)[GalNAc(a1-3)]Gal(b1-4)GlcNAc(b1-2)Man(a1-6)]Man(b1-4)GlcNAc(b1-4)GlcNAc
Method in brief: as §1

[15] = molecular target: Fuc(a1-2)[GalNAc(a1-3)]Gal(b1-4)GlcNAc(b1-3)Gal(b1-4)GlcNAc
Method in brief: as §1

[16] = molecular target: Fuc(a1-2)[GalNAc(a1-3)]Gal(b1-4)GlcNAc(b1-3)Gal(b1-4)GlcNAc(b1-3)Gal(b1-4)GlcNAc
Method in brief: as §1

[17] = molecular target: Fuc(a1-2)[GalNAc(a1-3)]Gal(b1-4)[Fuc(a1-3)]GlcNAc
Method in brief: as §1

[18] = molecular target: Fuc(a1-2)[GalNAc(a1-4)]Gal(b1-4)GlcNAc
Method in brief: as §1

[19] = molecular target: Fuc(a1-2)[GalNAc(b1-3)]Gal
Method in brief: as §1

Fuc(a1-3)GlcNAc = molecular target: Fuc(a1-3)GlcNAc
Method in brief: as §1

[20] = molecular target: Fuc(a1-3)[Gal(b1-4)]Glc6S
Method in brief: as §1

[21] = molecular target: Fuc(a1-3)[Gal(b1-4)]GlcNAc
Method in brief: as §1

[22] = molecular target: Fuc(a1-3)[Gal(b1-4)]GlcNAc(b1-2)Man(a1-3)[Fuc(a1-3)[Gal(b1-4)]GlcNAc(b1-2)Man(a1-6)]Man(b1-4)GlcNAc(b1-4)GlcNAc
Method in brief: as §1

[23] = molecular target: Fuc(a1-3)[Gal(b1-4)]GlcNAc(b1-3)Gal(b1-3)[Fuc(a1-4)]GlcNAc
Method in brief: as §1

[24] = molecular target: Fuc(a1-3)[Gal(b1-4)]GlcNAc(b1-3)GalNAc
Method in brief: as §1

[25] = molecular target: Fuc(a1-3)[Gal(b1-4)]GlcNAc(b1-4)Gal(b1-4)[Fuc(a1-3)]GlcNAc
Method in brief: as §1

[26] = molecular target: Fuc(a1-3)[Gal(b1-4)]GlcNAc(b1-4)Gal(b1-4)[Fuc(a1-3)]GlcNAc(b1-4)Gal(b1-4)[Fuc(a1-3)]GlcNAc
Method in brief: as §1

[27] = molecular target: Fuc(a1-3)[Gal(b1-4)]GlcNAc(b1-6)[Gal(b1-3)GlcNAc(b1-3)]Gal(b1-4)Glc
Method in brief: as §1

[28] = molecular target: Fuc(a1-3)[Gal(b1-4)]GlcNAc6S
Method in brief: as §1

B1: CREG (Mus musculus), O88668 (protein)
chain: MAARAPELARSLLAALLAPALVALLVSPASGRGGRDHGDWDVDRRLPPLPPREDGPRVARFVTHVSDWGSLATISTIKEVRGWPFADIISISDGPPGEGTGEPYMYLSPLQQAVSDLQENPEATLTMSLAQTVYCRNHGFDPQSPLCVHIMMSGTVTKVNKTEEDYARDSLFVRHPEMKHWPSSHNWFFAKLKISRIWVLDYFGGPKVVTPEEYFNVTLQ
glycan array binding signal (z-score) (Fuc(a1-2)[Gal(a1-3)]Gal): -0.992 | glycan array binding signal (z-score) [1]: 0.989 | glycan array binding signal (z-score) [2]: -0.38 | glycan array binding signal (z-score) [3]: -1.24 | glycan array binding signal (z-score) [4]: 1.36 | glycan array binding signal (z-score) [5]: 2.76 | glycan array binding signal (z-score) [6]: 0.58 | glycan array binding signal (z-score) [7]: 0.699 | glycan array binding signal (z-score) [8]: -0.068 | glycan array binding signal (z-score) [9]: -0.99 | glycan array binding signal (z-score) [10]: -0.28 | glycan array binding signal (z-score) [11]: -0.148 | glycan array binding signal (z-score) [12]: 0.375 | glycan array binding signal (z-score) [13]: -0.002 | glycan array binding signal (z-score) [14]: -0.239 | glycan array binding signal (z-score) [15]: 0.281 | glycan array binding signal (z-score) [16]: 0.705 | glycan array binding signal (z-score) [17]: 2.02 | glycan array binding signal (z-score) [18]: 0.128 | glycan array binding signal (z-score) [19]: -0.881 | glycan array binding signal (z-score) (Fuc(a1-3)GlcNAc): 0.475 | glycan array binding signal (z-score) [20]: -0.889 | glycan array binding signal (z-score) [21]: -0.783 | glycan array binding signal (z-score) [22]: 0.61 | glycan array binding signal (z-score) [23]: -0.359 | glycan array binding signal (z-score) [24]: 1.17 | glycan array binding signal (z-score) [25]: 2.95 | glycan array binding signal (z-score) [26]: -0.416 | glycan array binding signal (z-score) [27]: -0.563 | glycan array binding signal (z-score) [28]: 1.21
